# Results are given in words; binding and its absence hold for the method and conditions named. Binding can be weak; no strength is given.
# Protein sequences, listed by entry. Tags and fused reporters are not part of them. Lines headed by an entry give the natural chain unless they say otherwise; changes in a name come on top.
# UniProt A9CGG1: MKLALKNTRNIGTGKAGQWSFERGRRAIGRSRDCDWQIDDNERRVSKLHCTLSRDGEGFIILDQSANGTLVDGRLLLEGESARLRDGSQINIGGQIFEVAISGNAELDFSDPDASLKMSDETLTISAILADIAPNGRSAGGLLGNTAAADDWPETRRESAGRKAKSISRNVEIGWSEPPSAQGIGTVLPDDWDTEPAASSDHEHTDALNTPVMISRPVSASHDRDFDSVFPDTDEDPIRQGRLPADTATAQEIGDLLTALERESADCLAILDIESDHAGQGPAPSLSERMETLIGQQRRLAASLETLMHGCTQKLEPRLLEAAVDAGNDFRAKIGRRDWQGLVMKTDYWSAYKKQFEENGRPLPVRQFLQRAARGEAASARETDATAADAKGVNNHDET
# Molecular target: A. tumefaciens forkhead-associated protein Fha (Atu4335) (A. tumefaciens strain C58) (UniProt A9CGG1)
# Assay: two-hybrid; yeast two-hybrid, Matchmaker system (Clontech), S. cerevisiae AH109; positive interaction by growth on SD-WLHA medium at 30 °C for at least 2 days
substance,measurement,value
A. tumefaciens full-length TagF-PppA (Atu4331) (from UniProt Q7CUN2),binding,binds

# Reference: publication PMC5995506
